Test results reported in paper doi:10.1101/2020.06.10.144725 (bioRxiv, 2020).
Results are given in words; binding and its absence hold for the method and conditions named. For part of these data: Binding seen in cells or lysates may run through a third protein. Some entries that bind do so weakly or less than the wild type. For part of these data: Tags and fused reporters may be left off the sequences shown.

Chains of the proteins cited; added tags and fusions are not shown.
UniProt Q9Y2T1, whole entry: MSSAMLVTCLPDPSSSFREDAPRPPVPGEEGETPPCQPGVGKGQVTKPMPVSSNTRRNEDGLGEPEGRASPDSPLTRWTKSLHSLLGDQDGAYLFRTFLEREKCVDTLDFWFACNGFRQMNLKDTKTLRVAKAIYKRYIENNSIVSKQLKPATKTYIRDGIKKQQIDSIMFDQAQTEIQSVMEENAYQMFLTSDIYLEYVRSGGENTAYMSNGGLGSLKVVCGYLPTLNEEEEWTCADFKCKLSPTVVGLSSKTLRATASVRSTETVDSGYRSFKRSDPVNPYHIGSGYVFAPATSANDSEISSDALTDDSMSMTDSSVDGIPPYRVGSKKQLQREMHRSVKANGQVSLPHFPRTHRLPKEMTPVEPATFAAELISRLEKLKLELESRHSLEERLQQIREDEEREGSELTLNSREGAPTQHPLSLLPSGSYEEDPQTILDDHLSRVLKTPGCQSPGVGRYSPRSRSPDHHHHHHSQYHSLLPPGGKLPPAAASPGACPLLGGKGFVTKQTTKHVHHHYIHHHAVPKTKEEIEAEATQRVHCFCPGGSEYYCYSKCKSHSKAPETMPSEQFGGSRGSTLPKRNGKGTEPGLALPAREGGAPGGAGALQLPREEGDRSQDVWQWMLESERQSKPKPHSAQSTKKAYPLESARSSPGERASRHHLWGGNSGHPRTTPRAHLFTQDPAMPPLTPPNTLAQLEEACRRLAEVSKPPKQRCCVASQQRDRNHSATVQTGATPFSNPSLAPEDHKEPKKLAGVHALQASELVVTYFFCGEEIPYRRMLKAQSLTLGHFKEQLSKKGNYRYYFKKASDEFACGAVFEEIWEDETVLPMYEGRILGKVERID
UniProt O15169, whole entry: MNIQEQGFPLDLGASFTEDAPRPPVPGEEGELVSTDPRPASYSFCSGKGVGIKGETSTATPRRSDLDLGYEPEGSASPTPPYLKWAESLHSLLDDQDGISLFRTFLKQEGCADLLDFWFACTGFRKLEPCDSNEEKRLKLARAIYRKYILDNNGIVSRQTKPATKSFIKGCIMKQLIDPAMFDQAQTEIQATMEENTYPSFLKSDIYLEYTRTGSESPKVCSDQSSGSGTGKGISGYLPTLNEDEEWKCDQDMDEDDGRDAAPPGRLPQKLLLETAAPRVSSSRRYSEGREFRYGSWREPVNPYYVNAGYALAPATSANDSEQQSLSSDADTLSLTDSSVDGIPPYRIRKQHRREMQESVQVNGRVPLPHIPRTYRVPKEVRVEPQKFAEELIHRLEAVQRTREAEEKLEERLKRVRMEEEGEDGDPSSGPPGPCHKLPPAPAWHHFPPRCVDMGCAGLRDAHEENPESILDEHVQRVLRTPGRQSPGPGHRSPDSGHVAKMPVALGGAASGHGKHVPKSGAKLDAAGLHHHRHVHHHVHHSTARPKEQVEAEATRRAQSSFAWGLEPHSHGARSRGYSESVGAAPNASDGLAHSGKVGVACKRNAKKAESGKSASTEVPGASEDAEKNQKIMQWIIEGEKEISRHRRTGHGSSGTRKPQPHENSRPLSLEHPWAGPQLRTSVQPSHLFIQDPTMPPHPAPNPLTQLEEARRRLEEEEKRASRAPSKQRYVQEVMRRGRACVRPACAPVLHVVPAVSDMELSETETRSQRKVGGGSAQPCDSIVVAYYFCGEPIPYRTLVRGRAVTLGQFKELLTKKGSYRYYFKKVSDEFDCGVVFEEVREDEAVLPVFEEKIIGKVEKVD

Tests used:
RFP-NKD1-EF (human) = biological target: T1, RFP-NKD1-EF (human) (UniProt Q969G9); assay: SEC-MALS
T1 sequence: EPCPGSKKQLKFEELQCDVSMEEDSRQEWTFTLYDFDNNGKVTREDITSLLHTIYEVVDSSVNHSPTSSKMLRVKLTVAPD

Flag-Axin2 = Flag-Axin2 (UniProt Q9Y2T1); assay: co-IP
Flag-p62 = Flag-p62 (UniProt Q13501); assay: co-IP
Flag-Axin1 = Flag-Axin1 (UniProt O15169); assay: co-IP
[1] = biological target: HA-Nkd1 (murine Nkd1, wild type) (murine) (UniProt Q99MH6); assay: SDS-resistant high-molecular weight aggregates on Western blot
Axin1-GFP = Axin1-GFP (UniProt O15169); assay: co-IP

B1: Lip-DVL2-PDZ (domain or fragment, UniProt O14641 285-373)
chain: QSNERGDGGIYIGSIMKGGAVAADGRIEPGDMLLQVNDMNFENMSNDDAVRVLRDIVHKPGPIVLTVAKCWDPSPQAYFTLPRNEPIQP
- binding (RFP-NKD1-EF (human)): binds

B2: HA-Nkd1 (murine Nkd1, wild type) (protein, UniProt Q99MH6 1-471)
chain: MGKLHSKPAAVCKRRESPEGDSFAVSAAWARKGIEEWIGRQRCPGSVSGPRQLRLAGTVGRGTRELVGDTSREALGEEDEDDFPLEVALPPEKIDSLGSGDEKRMERLSEPGQASKKQLKFEELQCDVSVEEDSRQEWTFTLYDFDNNGKVTREDITSLLHTIYEVVDSSVNHSPTSSKTLRVKLTVAPDGSQSKRSVLFNHTDLQSTRPRADTKPAEELRGWEKKQRAPLRFQGDSHLEQPDCYHHCVDENIERRNHYLDLAGIENYTSQFGPGSPSVAQKSELPPRISNPTRSRSHEPEAAHIPHRRPQGVDPGSFHLLDTPFAKASELQQRLRGTQDGSKHFVRSPKAQGKNMGMGHGARGARSKPPLVPTTHTVSPSAHLATSPALLPTLAPLGHKKHKHRAKESQASCRGLQGPLAAGGSTVMGREQVRELPAVVVYESQAGQAVQRHEHHHHHEHHHHYHHFYQP
- binding (Flag-Axin2): no binding
- binding (Flag-p62): binds
- binding (Flag-Axin1): binds
- binding [1]: binds

B3: Flag-Nkd1 (protein, UniProt Q99MH6 1-471)
chain: MGKLHSKPAAVCKRRESPEGDSFAVSAAWARKGIEEWIGRQRCPGSVSGPRQLRLAGTVGRGTRELVGDTSREALGEEDEDDFPLEVALPPEKIDSLGSGDEKRMERLSEPGQASKKQLKFEELQCDVSVEEDSRQEWTFTLYDFDNNGKVTREDITSLLHTIYEVVDSSVNHSPTSSKTLRVKLTVAPDGSQSKRSVLFNHTDLQSTRPRADTKPAEELRGWEKKQRAPLRFQGDSHLEQPDCYHHCVDENIERRNHYLDLAGIENYTSQFGPGSPSVAQKSELPPRISNPTRSRSHEPEAAHIPHRRPQGVDPGSFHLLDTPFAKASELQQRLRGTQDGSKHFVRSPKAQGKNMGMGHGARGARSKPPLVPTTHTVSPSAHLATSPALLPTLAPLGHKKHKHRAKESQASCRGLQGPLAAGGSTVMGREQVRELPAVVVYESQAGQAVQRHEHHHHHEHHHHYHHFYQP
- binding (Axin1-GFP): binds
